From PubChem BioAssay AID434947 (Broad Institute, 2010)
Out of some 2,200 compounds screened, about 15 (0.7%) were called active.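 How the source made its calls: active means fitted half-maximal concentration for loss of luminescence signal no more than a set limit of log units above the top tested concentration; inconclusive means flat fit with 30 to 70% signal loss, or invalid fit; inactive means half-maximal concentration above that set limit.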 The list shows a part of the results.

assay: inhibitors of ADP-Glo detection reagents, dose response, artefact control for GSK3beta inhibitor project, biochemical, luminescence, cell-free, homogeneous (AID 434947); settings: 5 uM ADP;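 further: kinase-free counter screen of ADP-Glo detection reagents for GSK3beta hits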

EC50, inactive:
COC(=O)c1ccc(Nc2nc(-c3ccncc3)nc3ccccc23)cc1 > 30 µM
COc1cc(-c2[nH]nc3c2C(c2ccco2)C(C#N)=C(N)O3)cc(OC)c1OC (centres undefined) > 30 µM
CCOC(=O)C1=C(C)Nc2ncnn2C1c1c[nH]c2ccccc12 (centres undefined) > 30 µM
Fc1ccc(CSc2ccc3nnc(-c4cccnc4)n3n2)cc1 > 30 µM
COc1ccc(OC)c(C(=O)c2coc3ccc(OCC(=O)O)cc23)c1 > 30 µM
Nc1nc(NCC2CCCO2)nc(Nc2cccc(Cl)c2)c1[N+](=O)[O-] (centres undefined) > 30 µM
CCSc1nnc(NC(=O)CSc2nnc(CNC(=O)c3cc(OC)c(OC)c(OC)c3)o2)s1 > 30 µM
CCOC(=O)c1ccc2ncc(C(=O)OCC)c(Nc3ccc(N4CCOCC4)cc3)c2c1 > 30 µM
COc1ccc2c(c1)-c1c(ssc1=S)C(C)(C)N2 > 30 µM
c1ccc(OCCCn2nnc(-c3ccncc3)n2)cc1 > 30 µM
CCc1ccc(/C=N/NC(=O)c2nnn(-c3nonc3N)c2CN2CCOCC2)cc1 > 30 µM
CCC(C)NCCOCCOc1ccc(Cl)cc1Br (centres undefined) > 30 µM
CO/N=C/c1ccc(Oc2ccc(C)cc2)c([N+](=O)[O-])c1 > 30 µM
Nc1nc(NCC2CCCO2)nc(NCC2CCCO2)c1[N+](=O)[O-] (centres undefined) > 30 µM
COC(=O)c1nnn(-c2nonc2N)c1COc1ccc(C=O)cc1OC > 30 µM
COCCCNc1nc(N)c([N+](=O)[O-])c(NC2CCCCC2)n1 > 30 µM
CCNC(=O)NC(=O)CSc1nc2ccccc2n1CCOC > 30 µM
COc1ccccc1CNC(=O)OCc1nccnc1C(=O)Nc1ccc(Br)cn1 > 30 µM
Cc1ccc(S(=O)(=O)NCC(=O)N(CCc2ccccc2)CC(=O)NCc2ccco2)cc1 > 30 µM
CO/N=C(/CNC(=O)c1ccc(Cl)cc1Cl)c1ccc(Cl)cc1 > 30 µM
C[n+]1ccccc1/C=C/c1cc(Br)ccc1O > 30 µM
Cc1cc(NC(=O)CSc2nnc(C3CC3)n2Cc2ccccc2)no1 > 30 µM
Cc1ccc2nc3c(cc2c1)c(NC(=O)c1ccccn1)nn3CC(C)C > 30 µM
COc1cccc(-c2c(C(=O)N/N=C(\C)c3ccncc3)nnn2-c2nonc2N)c1 > 30 µM
Cc1nc(Nc2ccccc2)sc1C(=O)Nc1ccccc1 > 30 µM
CN(C)Cc1c(C(=O)N/N=C/c2ccncc2)nnn1-c1nonc1N > 30 µM
COc1ccc(-c2nn(-c3ccccc3)cc2/C=N/N=C(N)N)cc1OC > 30 µM
COc1cc(/C=N/Nc2nc(Nc3ccccc3)nc(N3CCCCC3)n2)ccc1OCC(=O)O > 30 µM
CCC1(CC)NC(=O)N(CC(=O)OCC(=O)Nc2sccc2C#N)C1=O > 30 µM
COc1ccc(OC)c(Nc2nc(N(C)c3ccccc3)nc(N)c2[N+](=O)[O-])c1 > 30 µM
CCOc1cc(C2c3c(n[nH]c3C)C(=O)N2c2ccc(C)cc2)ccc1O (centres undefined) > 30 µM
COC(=O)Cc1ccc2sc(-c3ccccc3)nc2c1 > 30 µM
NS(=O)(=O)c1cccc(NC(=O)COC(=O)/C(=C/c2cccs2)c2cccs2)c1 > 30 µM
CS(=O)(=O)N1CCN(c2cccc(Cl)n2)CC1 > 30 µM
COC(=O)c1ccc(CSc2nnc(-c3ccncc3)o2)o1 > 30 µM
Cc1cc(Cl)nc(Cl)c1C(=O)N1CCOCC1 > 30 µM
O=C(Nc1cc(-c2ccccc2)[nH]n1)c1ccccc1 > 30 µM
c1ccc(CNCC2COc3ccccc3O2)cc1 (centres undefined) > 30 µM
COCCOC(=O)C1=C(C)Nc2ncnn2C1c1ccccc1 (centres undefined) > 30 µM
O=C(Nc1ccc(Cl)c(Cl)c1)Nc1ccccn1 > 30 µM
CCC(C)Oc1cc(-c2ccnc(Nc3cccc(Cl)c3)n2)ccn1 (centres undefined) > 30 µM
COc1cccc(C(=O)Nc2nc(-c3ccncc3)cs2)c1 > 30 µM
CCCc1cc(=O)oc2cc(C)cc(O)c12 > 30 µM
O=C(O)c1ccccc1Nc1ccccc1C(=O)O > 30 µM
N#Cc1c(Cl)nc(-c2ccncc2)nc1-c1ccccc1 > 30 µM
Nc1nonc1-n1nnc(C(=O)N/N=C/c2ccccc2Br)c1CN1CCCC1 > 30 µM
CN(C)Cc1c(O)ccc2c(=O)c(-c3ccccc3)c(C(F)(F)F)oc12 > 30 µM
O=c1oc(-c2cccs2)nc2sc3c(c12)CCCC3 > 30 µM
N=C(N)N=Nc1c(O)[nH]c2ccc(Br)cc12 > 30 µM
CCCn1c(SCC(=O)Nc2ccc(Cl)cn2)nnc1C1CC1 > 30 µM
O=c1[nH]nc(SCCS(=O)(=O)c2ccc(F)cc2)n1-c1ccc2c(c1)OCCO2 > 30 µM
CC(C)CNC(=O)c1cccc(NC(=O)c2ccc(NC(=O)c3ccco3)cc2)c1 > 30 µM
COc1ccc2nc(NC(=O)CSC3=NCCS3)sc2c1 > 30 µM
COC(=O)c1nnn(-c2nonc2N)c1CSc1nc2ccccc2s1 > 30 µM
CC(C)Cc1ccccc1O > 30 µM
COc1cccc(NC(=O)CN(C2=NC3CS(=O)(=O)CC3S2)c2cccc(C)c2)c1 (centres undefined) > 30 µM
O=C1CCCC2=C1C(c1cccs1)n1ncnc1N2 (centres undefined) > 30 µM
Cn1c(SCC(=O)Nc2ccccc2)nc2ccccc2c1=O > 30 µM
Nc1nc(NCCO)nc(NC2CCCCC2)c1[N+](=O)[O-] > 30 µM
O=C1Nc2ccccc2/C1=N\N1CCOCC1 > 30 µM
c1ccc(CSc2nnc(-c3cccnc3)o2)cc1 > 30 µM
CCCN(CCC)Cc1c(C(=O)N/N=C/C(C)=C\c2ccccc2)nnn1-c1nonc1N > 30 µM
CC(C)Nc1nnc(SCC(=O)NCc2ccc3c(c2)OCO3)s1 > 30 µM
O=C(Nc1ccsc1C(=O)NC1CC1)c1ccccc1 > 30 µM
CCOC(=O)c1nnn(-c2nonc2N)c1CSc1ccccc1 > 30 µM
CC1CN(C(=O)CCCN2C(=O)c3ccccc3C2=O)CC(C)O1 (centres undefined) > 30 µM
COC(=O)C(CC(C)C)NC(=O)CSc1nc(-c2ccccc2)c(C#N)c(=O)[nH]1 (centres undefined) > 30 µM
Cc1ccc(C)c(S(=O)(=O)N2CCN(C(C(=O)Nc3ccc(F)cc3)c3ccccc3)CC2)c1 (centres undefined) > 30 µM
CC1(C)CC(=O)C=C(Nc2ccc(F)cc2)C1 > 30 µM
CCN(CC)Cc1c(C(=O)N/N=C/c2c(Cl)cccc2Cl)nnn1-c1nonc1N > 30 µM
O=c1c(-c2ccccc2)c(-c2ccccc2)oc2cc(O)cc(O)c12 > 30 µM
O=c1c2[nH]c3ccccc3c2ncn1C1CCCCC1 > 30 µM
Cc1cc(OCC(O)CNC(C)c2ccccc2)ccc1C(C)C (centres undefined) > 30 µM
COc1ccc(-c2nn(-c3ccccc3)cc2C(=O)O)cc1 > 30 µM
COc1ccccc1-c1cc(=O)c2c(O)ccc([N+](=O)[O-])c2o1 > 30 µM
COc1ccccc1-c1coc2c(CN(C)C)c(O)ccc2c1=O > 30 µM
Cc1c(C#N)c(O)[nH]c(=O)c1N=Nc1ccc(Cl)c(C(=O)O)c1 > 30 µM
O=C(CSc1ccc2nnc(-c3ccc(F)cc3)n2n1)NCc1ccco1 > 30 µM
COc1ccccc1-c1nc(C(=O)NCC2CCCO2)cc2c1[nH]c1ccccc12 (centres undefined) > 30 µM
O=C(Nc1ccccc1)Nc1cnccn1 > 30 µM
CCc1cccc(C)c1NC(=O)CSc1nnc(CCCOc2ccc(Cl)cc2Cl)n1C > 30 µM
COc1ccc(N(CN2C(=O)C3CC=CCC3C2=O)C(=O)c2ccco2)cc1 (centres undefined) > 30 µM
CCOc1ccccc1Nc1cc(C)nc2ccc(C)cc12 > 30 µM
Cc1ccccc1-c1nnc(SCCOc2ccc3c(C)cc(=O)oc3c2)o1 > 30 µM
COCc1c(C(=O)N/N=C/c2ccncc2)nnn1-c1nonc1N > 30 µM
COc1ccc(-c2nn(CCC(=O)O)cc2/C=N/NC(N)=S)cc1 > 30 µM
CCOC(=O)c1sc(=S)n(-c2ccccc2OC)c1N > 30 µM
COc1cccc(C2Nc3ccccc3NC3=C2C(=O)CC(C)(C)C3)c1 (centres undefined) > 30 µM
Cc1cccn2c(=O)nc(SCC(=O)NC3CCCCC3)nc12 > 30 µM
O=C(Nc1ccc(O)c2c(=O)cc(-c3ccccc3Cl)oc12)c1ccccc1Cl > 30 µM
Cc1cc(C(=O)OCCN2C(=O)c3ccccc3C2=O)c2ccccc2n1 > 30 µM
COc1ccc(C(=O)OCCc2sc[n+](CC(=O)c3ccccc3)c2C)cc1 > 30 µM
CN1CCc2[nH]c3ccc(C(=O)NN)cc3c2C1 > 30 µM
CC[n+]1c(/C=C/N(C)c2ccccc2)oc2ccc(F)cc21 > 30 µM

Taken from the entries so far, six compounds:
EC50, inactive:
CCC1(CC)NC(=O)N(CC(=O)OCC(=O)Nc2sccc2C#N)C1=O > 30 µM
COc1ccc(OC)c(Nc2nc(N(C)c3ccccc3)nc(N)c2[N+](=O)[O-])c1 > 30 µM
CCOc1cc(C2c3c(n[nH]c3C)C(=O)N2c2ccc(C)cc2)ccc1O (centres undefined) > 30 µM
COC(=O)Cc1ccc2sc(-c3ccccc3)nc2c1 > 30 µM
NS(=O)(=O)c1cccc(NC(=O)COC(=O)/C(=C/c2cccs2)c2cccs2)c1 > 30 µM
CS(=O)(=O)N1CCN(c2cccc(Cl)n2)CC1 > 30 µM
